{
  "source": "paper PMC9799981",
  "binders": {"B1": {"name": "DAZAP1 (protein, UniProt Q9JII5 1-406)", "chain": "MNSAGADEIGKLFVGGLDWSTTQETLRSYFSQYGEVVDCVIMKDKTTNQSRGFGFVKFKDPNCVGTVLASRPHTLDGRNIDPKPCTPRGMQPERTRPKEGWQKGPRSDSSKSNKIFVGGIPHNCGETELREYFKKFGVVTEVVMIYDAEKQRPRGFGFITFEDEQSVDQAVNMHFHDIMGKKVEVKRAEPRDSKNQAPGQPGASQWGSRVAPSAANGWAGQPPPTWQQGYGPQGMWVPAGQAIGGYGPPPAGRGAPPPPPPFTSYIVSTPPGGFPPPQGFPQGYGAPPQFSFGYGPPPPPPDQFAPPGVPPPPATPGAAPLAFPPPPSQAAPDMSKPPTAQPDFPYGQYGYGQDLSGFGQGFSDPSQQPPSYGGPSVPGSGGPPAGGSGFGRGQNHNVQGFHPYRR"}},
  "molecular_target": "HA-tagged p54^nrb",
  "experiment": "affinity purification with mass spectrometry; anti-HA immunoprecipitation from the nuclear fraction (RIPA) of HL-1 cells transduced with HA-p54^nrb, in normoxia or hypoxia (1% O2, 4 hr); 150 μg protein, protein G beads overnight at 4 °C, elution with HA peptides; label-free quantitative …",
  "note": "No constants are given. Whether binding was seen depends on the method and setting. Binding seen in cells or lysates may run through a third protein. A yes stands for co-enrichment or nearness to the bait. Other partners may have been found.",
  "data": [
    {"binder": "B1", "values": [
      {"measurement": "binding", "value": "binds"}
    ]}
  ]
}
